The list shows a part of the results.
Tests used:
Assay in all cases: log2 fold change, soluble protein after heating vs DMSO (PISA); higher = thermal stabilisation; K562 cells, 10 uM, 30 min; active = over 0.2 and 3.5 SD of the protein, either way, in both replicates (recomputed)
[1] = compound: CC1=C(C=C(C=C1)NC(=O)C2=CC(=CC=C2)C(C)(C)C#N)NC3=CC4=C(C=C3)N=CN(C4=O)C
How it was run: (§1)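 K562 cells at 2×10^6 cells/mL were exposed to 10 μM compound for 30 min, then aliquots were heated for 3 min across 48°C-58°C, pooled, and extracted in PBS containing 0.5% NP-40 at 4°C. The supernatant after 21,000xg for 90 min was taken as soluble protein and measured by TMTpro 16plex LC-MS/MS with channel sums equalised. Thermal stability is reported relative to control samples, with values from duplicates. Fold changes are given on a log2 scale.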

Protein sequences, listed by entry. Tags and fused reporters are not part of them. Lines headed by an entry give the natural chain unless they say otherwise; changes in a name come on top.
UniProt Q99442: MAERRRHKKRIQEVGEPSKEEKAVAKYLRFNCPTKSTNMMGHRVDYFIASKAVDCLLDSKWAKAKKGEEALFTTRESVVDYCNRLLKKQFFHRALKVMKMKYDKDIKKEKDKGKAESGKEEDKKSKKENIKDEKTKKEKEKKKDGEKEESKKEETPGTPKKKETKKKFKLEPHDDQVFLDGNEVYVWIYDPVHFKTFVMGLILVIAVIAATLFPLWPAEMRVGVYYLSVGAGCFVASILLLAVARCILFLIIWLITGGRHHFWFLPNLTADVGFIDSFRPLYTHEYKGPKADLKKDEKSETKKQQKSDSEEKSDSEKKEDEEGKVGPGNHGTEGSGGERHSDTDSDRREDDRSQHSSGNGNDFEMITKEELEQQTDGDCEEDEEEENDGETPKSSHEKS
UniProt O14796: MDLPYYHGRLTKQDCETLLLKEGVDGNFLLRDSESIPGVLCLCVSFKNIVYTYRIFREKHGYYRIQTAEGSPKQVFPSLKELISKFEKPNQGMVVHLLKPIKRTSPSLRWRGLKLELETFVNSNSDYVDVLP
UniProt Q96EE3: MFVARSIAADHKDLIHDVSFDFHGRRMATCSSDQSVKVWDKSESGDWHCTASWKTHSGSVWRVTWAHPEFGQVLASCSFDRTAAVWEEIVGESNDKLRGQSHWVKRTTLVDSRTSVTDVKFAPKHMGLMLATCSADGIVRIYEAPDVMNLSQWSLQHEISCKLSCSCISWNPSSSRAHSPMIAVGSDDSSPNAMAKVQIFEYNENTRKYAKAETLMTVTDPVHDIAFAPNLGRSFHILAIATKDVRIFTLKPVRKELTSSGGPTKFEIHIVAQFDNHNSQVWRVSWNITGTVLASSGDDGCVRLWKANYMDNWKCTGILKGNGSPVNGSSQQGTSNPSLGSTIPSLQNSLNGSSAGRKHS
UniProt P30740: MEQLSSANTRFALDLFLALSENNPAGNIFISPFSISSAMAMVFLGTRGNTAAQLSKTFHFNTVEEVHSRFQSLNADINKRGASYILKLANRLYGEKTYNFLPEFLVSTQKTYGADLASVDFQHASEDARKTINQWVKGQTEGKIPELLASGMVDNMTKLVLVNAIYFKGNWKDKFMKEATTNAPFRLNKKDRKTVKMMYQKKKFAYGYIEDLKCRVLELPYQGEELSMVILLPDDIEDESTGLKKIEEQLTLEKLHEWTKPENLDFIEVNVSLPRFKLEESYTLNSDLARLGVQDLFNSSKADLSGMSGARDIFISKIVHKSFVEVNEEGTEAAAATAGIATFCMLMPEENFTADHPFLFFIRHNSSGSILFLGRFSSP
UniProt Q9Y3L3: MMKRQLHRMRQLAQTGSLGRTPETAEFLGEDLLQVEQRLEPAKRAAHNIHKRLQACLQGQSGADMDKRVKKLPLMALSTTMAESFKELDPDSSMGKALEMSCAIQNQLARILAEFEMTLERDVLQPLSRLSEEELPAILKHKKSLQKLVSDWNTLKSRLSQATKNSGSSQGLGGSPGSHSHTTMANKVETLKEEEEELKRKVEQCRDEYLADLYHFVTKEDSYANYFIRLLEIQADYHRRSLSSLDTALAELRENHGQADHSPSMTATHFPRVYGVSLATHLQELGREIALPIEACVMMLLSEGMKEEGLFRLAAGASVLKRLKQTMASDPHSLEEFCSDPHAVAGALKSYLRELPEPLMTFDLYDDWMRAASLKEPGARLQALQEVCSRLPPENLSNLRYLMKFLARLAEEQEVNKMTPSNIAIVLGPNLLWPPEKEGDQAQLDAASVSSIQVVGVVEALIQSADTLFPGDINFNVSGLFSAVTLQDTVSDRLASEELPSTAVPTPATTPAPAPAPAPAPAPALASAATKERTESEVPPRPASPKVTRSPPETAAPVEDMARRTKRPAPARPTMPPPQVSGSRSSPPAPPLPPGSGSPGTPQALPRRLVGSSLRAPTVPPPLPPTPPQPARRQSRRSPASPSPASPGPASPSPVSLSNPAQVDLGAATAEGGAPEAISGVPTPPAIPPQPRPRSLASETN
UniProt Q15637: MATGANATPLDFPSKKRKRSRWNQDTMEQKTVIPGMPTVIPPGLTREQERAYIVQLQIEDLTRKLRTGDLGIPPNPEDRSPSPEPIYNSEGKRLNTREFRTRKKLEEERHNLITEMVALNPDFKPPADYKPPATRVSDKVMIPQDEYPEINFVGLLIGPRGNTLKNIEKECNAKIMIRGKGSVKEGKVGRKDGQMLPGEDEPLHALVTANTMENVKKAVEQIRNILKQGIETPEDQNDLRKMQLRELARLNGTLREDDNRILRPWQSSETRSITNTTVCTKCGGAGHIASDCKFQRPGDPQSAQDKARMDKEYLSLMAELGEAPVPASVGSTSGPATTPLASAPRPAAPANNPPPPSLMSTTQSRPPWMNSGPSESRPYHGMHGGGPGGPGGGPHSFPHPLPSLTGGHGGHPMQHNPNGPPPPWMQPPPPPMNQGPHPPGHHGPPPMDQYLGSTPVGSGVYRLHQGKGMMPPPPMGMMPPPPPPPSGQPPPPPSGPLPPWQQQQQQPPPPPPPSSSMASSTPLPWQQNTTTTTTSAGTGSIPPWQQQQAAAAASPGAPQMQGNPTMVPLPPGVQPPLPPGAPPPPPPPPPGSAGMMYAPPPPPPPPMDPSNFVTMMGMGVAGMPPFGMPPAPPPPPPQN
UniProt P01008, whole entry, looked up: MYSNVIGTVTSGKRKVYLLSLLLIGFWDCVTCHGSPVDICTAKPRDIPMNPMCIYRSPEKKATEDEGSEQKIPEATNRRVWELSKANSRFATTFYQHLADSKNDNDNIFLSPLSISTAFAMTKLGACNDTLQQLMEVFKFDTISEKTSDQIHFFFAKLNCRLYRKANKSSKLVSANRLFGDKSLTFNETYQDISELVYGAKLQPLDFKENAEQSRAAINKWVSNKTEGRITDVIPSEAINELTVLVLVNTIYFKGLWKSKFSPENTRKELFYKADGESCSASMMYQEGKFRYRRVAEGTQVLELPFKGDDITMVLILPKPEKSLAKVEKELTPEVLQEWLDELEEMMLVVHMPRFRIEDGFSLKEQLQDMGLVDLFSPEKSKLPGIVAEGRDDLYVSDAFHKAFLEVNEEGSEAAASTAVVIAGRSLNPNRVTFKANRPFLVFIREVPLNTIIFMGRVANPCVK
UniProt Q8N6T7, whole entry, looked up: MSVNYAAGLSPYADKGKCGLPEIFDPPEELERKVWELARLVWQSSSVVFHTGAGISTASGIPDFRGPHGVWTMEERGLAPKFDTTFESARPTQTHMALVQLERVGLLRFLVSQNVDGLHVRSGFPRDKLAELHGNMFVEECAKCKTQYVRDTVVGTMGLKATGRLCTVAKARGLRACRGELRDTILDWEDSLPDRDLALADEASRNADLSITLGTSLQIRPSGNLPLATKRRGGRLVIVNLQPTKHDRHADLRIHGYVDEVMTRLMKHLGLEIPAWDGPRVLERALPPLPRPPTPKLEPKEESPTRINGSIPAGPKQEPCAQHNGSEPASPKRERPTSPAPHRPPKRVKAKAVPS
UniProt Q99611, whole entry, looked up: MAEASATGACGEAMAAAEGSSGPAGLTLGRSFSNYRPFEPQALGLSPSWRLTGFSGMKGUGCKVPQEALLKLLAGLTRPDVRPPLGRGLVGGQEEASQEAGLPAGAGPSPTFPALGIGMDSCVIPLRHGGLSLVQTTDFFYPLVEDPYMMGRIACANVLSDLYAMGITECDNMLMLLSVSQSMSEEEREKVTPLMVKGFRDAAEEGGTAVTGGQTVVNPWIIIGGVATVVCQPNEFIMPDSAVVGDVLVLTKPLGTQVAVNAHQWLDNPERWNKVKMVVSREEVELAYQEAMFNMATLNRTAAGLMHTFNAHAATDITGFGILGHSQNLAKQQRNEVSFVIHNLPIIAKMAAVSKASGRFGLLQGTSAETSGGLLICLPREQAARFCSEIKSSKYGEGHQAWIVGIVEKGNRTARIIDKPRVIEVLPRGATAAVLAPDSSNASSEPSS
UniProt Q13228: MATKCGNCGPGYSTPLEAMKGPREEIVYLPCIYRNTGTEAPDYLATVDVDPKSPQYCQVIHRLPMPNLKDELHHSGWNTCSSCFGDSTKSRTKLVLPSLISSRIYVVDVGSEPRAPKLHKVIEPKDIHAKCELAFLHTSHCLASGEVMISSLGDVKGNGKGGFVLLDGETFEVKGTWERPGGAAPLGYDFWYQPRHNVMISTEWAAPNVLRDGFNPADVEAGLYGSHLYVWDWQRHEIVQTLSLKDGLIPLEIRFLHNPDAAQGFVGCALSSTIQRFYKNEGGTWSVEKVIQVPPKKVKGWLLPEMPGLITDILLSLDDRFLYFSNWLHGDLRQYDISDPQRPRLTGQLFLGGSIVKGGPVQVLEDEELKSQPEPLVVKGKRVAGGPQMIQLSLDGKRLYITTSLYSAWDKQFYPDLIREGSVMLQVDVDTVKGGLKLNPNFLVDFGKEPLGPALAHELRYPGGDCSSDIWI
UniProt P36955: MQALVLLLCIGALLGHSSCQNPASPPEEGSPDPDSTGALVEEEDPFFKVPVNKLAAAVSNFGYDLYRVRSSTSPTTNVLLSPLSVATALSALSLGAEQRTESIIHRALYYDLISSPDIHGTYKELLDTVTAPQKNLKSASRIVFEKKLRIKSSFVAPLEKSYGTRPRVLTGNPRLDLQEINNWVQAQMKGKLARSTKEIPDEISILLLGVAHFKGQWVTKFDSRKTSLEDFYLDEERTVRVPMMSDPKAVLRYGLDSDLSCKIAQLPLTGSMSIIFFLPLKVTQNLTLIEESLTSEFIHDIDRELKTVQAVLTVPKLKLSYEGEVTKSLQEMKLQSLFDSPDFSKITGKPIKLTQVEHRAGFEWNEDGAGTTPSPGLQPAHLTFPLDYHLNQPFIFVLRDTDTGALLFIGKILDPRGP
UniProt P34896: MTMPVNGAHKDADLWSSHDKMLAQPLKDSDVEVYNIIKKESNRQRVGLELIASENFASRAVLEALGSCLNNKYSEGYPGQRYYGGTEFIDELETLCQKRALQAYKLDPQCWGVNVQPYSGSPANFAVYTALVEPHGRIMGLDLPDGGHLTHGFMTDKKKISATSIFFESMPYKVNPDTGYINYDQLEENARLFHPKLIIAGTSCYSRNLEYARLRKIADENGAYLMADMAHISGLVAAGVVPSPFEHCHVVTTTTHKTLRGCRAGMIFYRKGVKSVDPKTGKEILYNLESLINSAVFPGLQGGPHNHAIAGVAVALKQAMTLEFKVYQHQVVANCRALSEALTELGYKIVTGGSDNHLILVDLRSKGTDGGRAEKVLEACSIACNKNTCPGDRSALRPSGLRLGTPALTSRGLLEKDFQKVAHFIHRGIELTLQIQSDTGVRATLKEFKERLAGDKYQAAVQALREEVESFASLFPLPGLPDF
UniProt Q8TD22: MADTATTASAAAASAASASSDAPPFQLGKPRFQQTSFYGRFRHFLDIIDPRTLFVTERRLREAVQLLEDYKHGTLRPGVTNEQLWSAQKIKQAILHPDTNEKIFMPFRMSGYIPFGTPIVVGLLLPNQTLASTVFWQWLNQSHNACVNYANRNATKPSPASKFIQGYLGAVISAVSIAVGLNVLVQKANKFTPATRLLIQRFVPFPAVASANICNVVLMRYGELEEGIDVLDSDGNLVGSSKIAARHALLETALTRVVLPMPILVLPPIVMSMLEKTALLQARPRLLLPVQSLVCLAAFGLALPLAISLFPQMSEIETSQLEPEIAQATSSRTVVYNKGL
UniProt Q9UJC5: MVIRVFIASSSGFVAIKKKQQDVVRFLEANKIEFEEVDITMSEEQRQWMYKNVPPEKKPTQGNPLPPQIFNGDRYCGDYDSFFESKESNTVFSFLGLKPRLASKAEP

[2] = compound: CC1=C(C=C(C=C1)NC(=O)C2=CC(=CC=C2)N(C)C)NC(=O)C3=CC=C(C=C3)O
How it was run: as §1

[3] = compound: CC1=CC=C(C=C1)SC2=C3C=C(SC3=CN=C2)C(=O)N
How it was run: as §1

[4] = compound: CC1=NC(=CC=C1)C2=C(N=C(N2)C(C)(C)C)C3=CC4=NC=CN=C4C=C3
How it was run: as §1

Nexturastat A = compound: CCCCN(Cc1ccc(C(=O)NO)cc1)C(=O)Nc1ccccc1 [Nexturastat A]
How it was run: as §1

vemurafenib = compound: CCCS(=O)(=O)Nc1ccc(F)c(C(=O)c2c[nH]c3ncc(-c4ccc(Cl)cc4)cc23)c1F [vemurafenib]
How it was run: as §1

[5] = compound: CCCS(=O)(=O)Nc1ccc(F)c(C(=O)c2c[nH]c3ncc(Cl)cc23)c1F
How it was run: as §1

[6] = compound: CCCc1cc(C)[nH]c(=O)c1CNC(=O)c1cc(-c2ccnc(N3CCN(C)CC3)c2)cc2c1cnn2C(C)C
How it was run: as §1

givinostat = compound: CCN(CC)Cc1ccc2cc(COC(=O)Nc3ccc(C(=O)NO)cc3)ccc2c1 [givinostat]
How it was run: as §1

barasertib = compound: CCN(CCCOc1ccc2c(Nc3cc(CC(=O)Nc4cccc(F)c4)[nH]n3)ncnc2c1)CCOP(=O)(O)O [barasertib]
How it was run: as §1

Measured: log2 fold change

SEC62 (UniProt Q99442)
inactive: [1] -0.024 | [2] -0.013 | [3] -0.021 | [4] 0.028 | Nexturastat A -0.021 | vemurafenib -0.021 | [5] -0.021 | [6] 0.108 | givinostat -0.057 | barasertib 0.059

SH2D1B (UniProt O14796)
inactive: [1] -0.781 | [2] 0.013 | [3] -0.01 | [4] -0.011 | Nexturastat A 0.143 | vemurafenib 0.048 | [5] -0.135 | [6] -0.146 | givinostat -0.028

SEH1L isoform 1 (UniProt Q96EE3)
inactive: [1] -0.004 | [2] 0.015 | [3] 0.005 | [4] -0.019 | Nexturastat A 0.011 | vemurafenib 0.005 | [5] 0.048 | [6] -0.033 | givinostat 0.005 | barasertib 0.008

SERPINB1 (UniProt P30740)
inactive: [1] -0.005 | [2] 0.007 | [3] -0.001 | [4] 0.035 | Nexturastat A -0.064 | vemurafenib 0 | [5] 0.017 | [6] -0.028 | givinostat 0.006 | barasertib 0.005

SH3BP1 (UniProt Q9Y3L3)
inactive: [1] -0.012 | [2] 0 | [3] -0.018 | [4] 0.052 | Nexturastat A -0.026 | vemurafenib -0.034 | [5] 0.004 | [6] -0.021 | givinostat 0.011 | barasertib 0.035

SF1 isoform 6 (UniProt Q15637)
inactive: [1] -0.177 | [2] -0.14 | [3] 0.112 | [4] -0.005 | Nexturastat A 0.006 | vemurafenib -0.039 | [5] 0.076 | [6] -0.042 | givinostat 0.14 | barasertib -0.065

SF1 isoform 5 (UniProt Q15637)
inactive: [1] -0.015 | [2] -0.006 | [3] 0.022 | [4] 0 | Nexturastat A 0.005 | vemurafenib -0.01 | [5] -0.016 | [6] -0.016 | givinostat -0.01 | barasertib 0.011

SERPINC1 (UniProt P01008)
inactive: [1] -0.032 | [2] 0.586 | [3] 0.206 | [4] 0.019 | Nexturastat A -0.138 | vemurafenib 0.072 | [5] -0.152 | [6] -0.236 | givinostat 0.021 | barasertib -0.065

SIRT6 (UniProt Q8N6T7)
inactive: [1] 0.053 | [2] -0.018 | [3] 0.095 | [4] 0.105 | Nexturastat A -0.087 | vemurafenib 0.074 | [5] 0.09 | [6] 0.084 | givinostat 0.134 | barasertib 0.098

SEPHS2 (UniProt Q99611)
inactive: [1] 0.044 | [2] 0.043 | [3] 0.084 | [4] 0.03 | Nexturastat A -0.032 | vemurafenib 0.069 | [5] 0.044 | [6] -0.049 | givinostat 0.035 | barasertib -0.053

SELENBP1 isoform 4 (UniProt Q13228)
inactive: [1] 0.029 | [2] -0.009 | [3] 0.022 | [4] 0.063 | Nexturastat A -0.024 | vemurafenib 0.03 | [5] -0.015 | [6] 0 | givinostat -0.062 | barasertib 0.003

SERPINF1 (UniProt P36955)
inactive: [1] -0.038 | [2] 0.125 | [3] -0.015 | [4] 0.018 | Nexturastat A -0.053 | vemurafenib -0.033 | [5] -0.009 | [6] 0.003 | givinostat -0.025 | barasertib -0.055

Three successive entries from above, for reference:
SF1 isoform 6 (UniProt Q15637)
inactive: [1] -0.177 | [2] -0.14 | [3] 0.112 | [4] -0.005 | Nexturastat A 0.006 | vemurafenib -0.039 | [5] 0.076 | [6] -0.042 | givinostat 0.14 | barasertib -0.065

SF1 isoform 5 (UniProt Q15637)
inactive: [1] -0.015 | [2] -0.006 | [3] 0.022 | [4] 0 | Nexturastat A 0.005 | vemurafenib -0.01 | [5] -0.016 | [6] -0.016 | givinostat -0.01 | barasertib 0.011

SERPINC1 (UniProt P01008)
inactive: [1] -0.032 | [2] 0.586 | [3] 0.206 | [4] 0.019 | Nexturastat A -0.138 | vemurafenib 0.072 | [5] -0.152 | [6] -0.236 | givinostat 0.021 | barasertib -0.065

Carrying on.

SHMT1 (UniProt P34896)
inactive: [1] 0.028 | [2] -0.001 | [3] 0.034 | [4] -0.02 | Nexturastat A -0.108 | vemurafenib -0.007 | [5] -0.001 | [6] -0.052 | givinostat -0.019 | barasertib -0.009

SFXN5 (UniProt Q8TD22)
inactive: [1] -0.013 | [2] 0 | [3] 0.049 | [4] 0.024 | Nexturastat A -0.026 | vemurafenib 0.135 | [5] 0.012 | [6] 0.012 | givinostat 0.124 | barasertib 0.057

SH3BGRL2 (UniProt Q9UJC5)
inactive: [1] -0.037 | [2] -0.007 | [3] -0.023 | [4] -0.047 | Nexturastat A 0.019 | vemurafenib 0.032 | [5] 0.044 | [6] -0.024 | givinostat 0.018 | barasertib 0.042
